PubChem BioAssay AID652243, Drosophila RNAi Screening Center, 2013
Test: 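Knock-downs that decrease or increase androgen receptor reporter signal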 (primary screen). Cells: Drosophila S2R+ cells. Reagents: long dsRNA against Drosophila genes. Timing: 72 h (48 h, then 24 h hormone). Conditions: synthetic androgen R1881 at 10 nM for 24 h. Measured: 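Per-well raw luminescence of the androgen-driven firefly reporter and of the Renilla control, two replicates each, without normalisation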. Direction: firefly reporter light: higher = more light from androgen-responsive reporter; Renilla control light: higher = more constitutive control signal (cell number, transfection). Rule for the call: 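Across duplicate plates, a knock-down whose log firefly/Renilla ratio shifted a set fold down or up from the GFP/LacZ control mean was a hit; the downward cut appears as both 1.5 and 3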. Meaning of the calls: active = hit: reporter lowered or raised; inactive = no hit.
The screen tested about 24,000 reagents; below is an unselected part of those with a known target gene and a result. In the full data, 246 (1%) were called active. 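Plates not normalised; calls are printed but the firefly/Renilla ratio behind them is not deposited; fold cut for lowering reported inconsistently.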 Raw values are not corrected between plates. A plus sign joins genes that one reagent is predicted to hit. The record does not give: the amount of reagent.

Bet3 [DRSC10388]: firefly reporter light, replicate 1 = 2.24e5; firefly reporter light, replicate 2 = 1.82e5; Renilla control light, replicate 1 = 2.38e6; Renilla control light, replicate 2 = 1.57e6; call = inactive
CG14866 [DRSC14989]: firefly reporter light, replicate 1 = 2.64e5; firefly reporter light, replicate 2 = 2.17e5; Renilla control light, replicate 1 = 3.53e6; Renilla control light, replicate 2 = 2.90e6; call = inactive
Or74a [DRSC11245]: firefly reporter light, replicate 1 = 2.07e5; firefly reporter light, replicate 2 = 2.04e5; Renilla control light, replicate 1 = 1.59e6; Renilla control light, replicate 2 = 1.34e6; call = inactive
Adat1 [DRSC03479]: firefly reporter light, replicate 1 = 2.57e5; firefly reporter light, replicate 2 = 2.05e5; Renilla control light, replicate 1 = 1.61e6; Renilla control light, replicate 2 = 1.70e6; call = inactive
Adat1 [DRSC27220]: firefly reporter light, replicate 1 = 2.29e5; firefly reporter light, replicate 2 = 2.28e5; Renilla control light, replicate 1 = 5.13e5; Renilla control light, replicate 2 = 6.33e5; call = inactive
CG3347 [DRSC00597]: firefly reporter light, replicate 1 = 95961; firefly reporter light, replicate 2 = 1.12e5; Renilla control light, replicate 1 = 7.82e5; Renilla control light, replicate 2 = 8.35e5; call = inactive
CG32069 + Blos2 [DRSC10621]: firefly reporter light, replicate 1 = 8.20e5; firefly reporter light, replicate 2 = 7.94e5; Renilla control light, replicate 1 = 2.02e6; Renilla control light, replicate 2 = 1.81e6; call = inactive
Cubn2 [DRSC10561]: firefly reporter light, replicate 1 = 1.33e5; firefly reporter light, replicate 2 = 1.51e5; Renilla control light, replicate 1 = 1.41e6; Renilla control light, replicate 2 = 1.37e6; call = inactive
Cubn2 [DRSC22044]: firefly reporter light, replicate 1 = 7.30e5; firefly reporter light, replicate 2 = 8.06e5; Renilla control light, replicate 1 = 2.05e6; Renilla control light, replicate 2 = 2.08e6; call = inactive
dpr12 [DRSC04863]: firefly reporter light, replicate 1 = 3.65e5; firefly reporter light, replicate 2 = 3.28e5; Renilla control light, replicate 1 = 2.17e6; Renilla control light, replicate 2 = 2.00e6; call = inactive
dpr12 [DRSC04892]: firefly reporter light, replicate 1 = 2.71e5; firefly reporter light, replicate 2 = 3.39e5; Renilla control light, replicate 1 = 1.66e6; Renilla control light, replicate 2 = 1.77e6; call = inactive
RpS14a [DRSC18710]: firefly reporter light, replicate 1 = 1.76e5; firefly reporter light, replicate 2 = 1.87e5; Renilla control light, replicate 1 = 1.60e6; Renilla control light, replicate 2 = 1.47e6; call = inactive
